{
  "source": "paper PMC4297292",
  "about": "(Cancer Cell, 2015)",
  "system": "patient #2 cells (vemurafenib-resistant melanoma)",
  "assay": "Cell proliferation assay",
  "assay_type": "cell-based",
  "settings": "Homo sapiens, read-out: 50% inhibitory concentration [IC50]",
  "data": [
    {"smiles": "C[S+]([O-])c1ccc(-c2nc(-c3ccncc3)c(-c3ccc(F)cc3)[nH]2)cc1", "note": "(stereo not shown) [SB203580]", "values": [
      {"measurement": "IC50", "value": 29.4, "unit": "µM"}
    ]}
  ]
}
